Results: US5164321A, “Process for the removal of non-specific turbidities” (priority 1987, dated 1992)

Columns and labels:
[1] = Non-specific agglutination in latex immunoassay for TSH determination (Example 2); parameters: species or system human; details: for non-specific agglutination, boron compound alone: 120 mmole/l in the test
[2] = Non-specific agglutination in latex immunoassay for AFP determination (turbidity at 623 nm, Example 1); parameters: species or system human; details: 120 mmole/l in the test

Which “non-specific agglutination, buffer” value ([1]; buffer alone, 70 mmole/l in the test, pH 7.0) does the source give for `NC(CO)(CO)CO` [TRIS] here?
The value was 120 mE/5 min. and 142 mE/5 min.

For `OB(O)O` [boric acid], which “non-specific agglutination, boron compound alone” value [2] is on record?
Its value is 253 ME/5 min.

And the “non-specific agglutination, boron compound alone” value [1]?
Its value is 230 mE/5 min.

Which results are given for `O=B[O-].[Na+]` [metaborate, sodium metaborate]?
non-specific agglutination, boron compound alone [2]: 106 ME/5 min.; non-specific agglutination, boron compound alone [1]: 106 mE/5 min.

For `[Na+].[Na+].[O-]B1OB2OB([O-])OB(O1)O2` [tetraborate, sodium tetraborate], which “non-specific agglutination, boron compound alone” value [2] is on record?
The value was 0 ME/5 min.

Which “non-specific agglutination, boron compound alone” value [2] does the source give for sodium perborate here?
Its value is 92 ME/5 min.

Several values for one entry are separate records, joined by “and”; a condition that tells them apart may be missing. Equal entries are not always repeated.
